Results are given in words; binding and its absence hold for the method and conditions named. Binding seen in cells or lysates may run through a third protein. A result given as binding can be weak or reduced; the word gives no strength.
Biological target: GST-WASP-GBD (GTPase-binding-domain) (UniProt P42768)
Test: pull-down; MDA-MB-231 lysates (20 mM Hepes pH 7.4, 150 mM NaCl, 1% NP-40, 20 mM NaF, 20 uM GTP) incubated with GST (control) or GST-WASP-GBD for 2 h at 4 °C, collected with glutathione-Sepharose, blot with anti-Cdc42; cells serum starved, then DMSO or 50 µM compound for 2 h, with or without 100 ng/mL EGF for 10 min; only the target purified

Chains of the proteins cited; added tags and fusions are not shown. Lines headed by an entry give the natural chain unless they say otherwise; changes in a name come on top.
UniProt P42768: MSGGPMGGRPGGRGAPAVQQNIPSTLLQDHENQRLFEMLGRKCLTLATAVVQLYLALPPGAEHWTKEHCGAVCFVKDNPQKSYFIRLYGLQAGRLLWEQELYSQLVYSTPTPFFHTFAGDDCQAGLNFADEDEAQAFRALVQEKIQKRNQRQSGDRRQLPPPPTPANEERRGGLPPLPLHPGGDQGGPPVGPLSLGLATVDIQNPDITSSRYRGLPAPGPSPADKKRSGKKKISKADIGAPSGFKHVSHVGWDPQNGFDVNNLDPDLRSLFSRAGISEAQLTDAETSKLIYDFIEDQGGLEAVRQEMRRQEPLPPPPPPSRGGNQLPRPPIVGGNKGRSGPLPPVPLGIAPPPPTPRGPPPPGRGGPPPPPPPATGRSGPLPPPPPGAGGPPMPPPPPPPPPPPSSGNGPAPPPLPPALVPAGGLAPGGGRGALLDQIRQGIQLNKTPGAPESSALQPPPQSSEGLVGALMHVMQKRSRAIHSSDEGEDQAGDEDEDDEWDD
UniProt P60953: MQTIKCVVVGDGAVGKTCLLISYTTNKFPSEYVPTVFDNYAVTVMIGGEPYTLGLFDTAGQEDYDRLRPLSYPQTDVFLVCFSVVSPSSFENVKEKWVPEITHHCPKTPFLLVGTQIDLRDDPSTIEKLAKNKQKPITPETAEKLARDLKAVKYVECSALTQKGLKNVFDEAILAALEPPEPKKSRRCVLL

- binding: binds
Substance: endogenous Cdc42 (MDA-MB-231) (from UniProt P60953 1-191)

From publication PMC9576799, “Discovery of small molecule inhibitors that effectively disrupt IQGAP1-Cdc42 interaction in breast cancer cells” (Scientific Reports, 2022)
